Experimental data: PubChem BioAssay AID1259290 (Sanger Institute, 2017)
In all, the deposit lists 794 reagents; this is an unselected part. Over the whole deposit, 9 (1.1%) got an active call. 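Calls rest on knock-down alone, not drug synergy; synergy above 0.15 was grouped apart and does not affect calls.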 Entries without a mark were called inactive. Viability is capped at 1. Not all columns of the deposit are shown. Reagent sequences are not shown. Not given: the amount of reagent, the time to read-out.

- Assay: 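Kinases whose loss kills colorectal cancer cells alone or alongside targeted drugs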 (primary screen)
- System: human SNUC1 colorectal cancer cells
- Knock-down reagent: siRNA pool against human genes
- Treatment: anchor drugs BYL719 1 µM, cetuximab 5 µg/ml or trametinib 10 nM, or DMSO vehicle alone
- Measured: 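Viability averaged over replicates and scaled to non-targeting siRNA, robust z-score with no drug, and synergy scores by drug for BYL719, cetuximab and trametinib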
- Direction: viability z-score, siRNA alone: higher = more viable cells; low values mean essential gene; viability vs control, siRNA alone: higher = more viable cells; synergy score with BYL719 and synergy score with Cetuximab: higher = stronger synthetic lethal effect with drug
- Hit rule: 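a knock-down without drug scoring a robust z under -3 counts as essential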
- Meaning of the calls: active = essential: knock-down alone cut viability (z below -3); inactive = no clear viability loss with knock-down alone

no.	target	viability z-score, siRNA alone	viability vs control, siRNA alone	synergy score with BYL719	synergy score with Cetuximab
1	AURKC	0.936	1	0.0235	-0.0447
2	WT1	-0.473	0.873	-0.0754	0.139
3	LCK	0.936	1	-0.198	-0.0293
4	ZC3H11A	0.936	1	-0.0622	-0.0447
5	TGFBR2	-0.0604	0.91	-0.222	-0.0795
6	LMBR1	-0.219	0.896	-0.156	-0.0742
7	EIF2AK1	0.791	0.987	-0.165	0.0722
8	TAOK2	-0.906	0.834	-0.325	-0.0731
9	ERN1	0.936	1	-0.0287	0.0491
10	EIF2AK3	0.029	0.918	-0.0859	0.0101
11	AK4	-0.492	0.871	0.0247	0.00894
12	ACSL6	-3.53 (active)	0.598	-0.153	-0.126
13	PIP5KL1	-1.46	0.784	-0.16	-0.162
14	PRKCE	0.936	1	-0.134	-0.00297
15	AXIN2	-1.77	0.756	-0.114	0.147
16	PAK5	0.936	1	0.121	0.0618
17	DCLK1	-0.687	0.854	-0.191	-0.0718
18	TWF2	0.111	0.926	-0.195	-0.0774
19	MAP3K6	-0.672	0.855	-0.256	0.138
20	NRBP2	-1.25	0.803	0.0196	0.0647

Only “viability vs control, siRNA alone”, for 2 of the entries above:
ACSL6	0.598 (active)
PIP5KL1	0.784
